## Assay results

By UniProt entry, the sequences of proteins in these tests, tags left out.
UniProt P04637, whole entry, target on record: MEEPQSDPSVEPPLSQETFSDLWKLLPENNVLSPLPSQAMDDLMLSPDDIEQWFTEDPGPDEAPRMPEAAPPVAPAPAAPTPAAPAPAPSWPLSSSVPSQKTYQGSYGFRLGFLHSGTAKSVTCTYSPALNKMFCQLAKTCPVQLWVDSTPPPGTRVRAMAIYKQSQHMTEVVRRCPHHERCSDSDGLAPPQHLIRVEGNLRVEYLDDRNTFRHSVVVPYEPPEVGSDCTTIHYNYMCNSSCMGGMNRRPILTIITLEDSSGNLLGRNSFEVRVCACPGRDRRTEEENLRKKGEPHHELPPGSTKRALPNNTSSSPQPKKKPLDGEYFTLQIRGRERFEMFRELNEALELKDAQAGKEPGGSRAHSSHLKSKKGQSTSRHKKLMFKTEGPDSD

Data taken from PubChem BioAssay AID2060322, deposited by NCATS (2025).

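Curve-fitted potency for raising eGFP-delta133p53alpha fluorescence in NCI-H358 cells after a 24-hour treatment.
The dilution series runs from about 7.7e-06 to 290 µM in 23 concentration columns.
Potency, read at half-maximal effect from the fitted activation curve; lower values mean a more potent compound.
Calls follow the dose-curve shape: a well-fitted activation curve with a large enough effect is active, and small, poorly fitted or top-dose-only effects are inconclusive.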

Values are in µM.
Every entry below has the call inconclusive.
Only part of the assay is shown, chiefly results filed as inconclusive.
A potency from a partial, single-point or poor curve is only a rough figure.
Some entries filed as inconclusive have a full curve.
An entry listed twice with the same setting is a separate test.

Cc1cnc(-c2cnc(NCCNc3ccc(C#N)cn3)nc2-c2ccc(Cl)cc2Cl)[nH]1 read fitted potency 9.68 µM (activator, partial curve, poor fit). For C#C[C@]1(O)CC[C@H]2[C@@H]3CCc4cc(O)ccc4[C@H]3CC[C@@]21C the result was fitted potency 3.092 µM (activator, full curve). Nc1ccccc1NC(=O)c1ccc(CNC(=O)OCc2cccnc2)cc1 gave fitted potency 43.23 µM (activator, partial curve, poor fit). Result for N[C@@H](Cc1ccc(N(CCCl)CCCl)cc1)C(=O)O was fitted potency 38.93 µM (activator, single point). COc1cc(C(N)=O)nc(-c2ccccn2)c1O read fitted potency 8.492 µM (activator, single point). Result for CC(C)(C)c1nc(-c2cccc(NS(=O)(=O)c3c(F)cccc3F)c2F)c(-c2ccnc(N)n2)s1 was fitted potency 43.24 µM (activator, single point).

CC(C)C[C@H](NC(=O)CNC(=O)OCc1ccccc1)C(=O)N[C@@H](Cc1ccccc1)C(=O)CCl read fitted potency 37.93 µM (activator, single point). For COCCOC(=O)C1=C(C)NC2=C(C(=O)CC(c3ccccc3OC)C2)C1c1cccc(O)c1 (centres unmarked) the result was fitted potency 43.24 µM (activator, single point). O=C1C(SCCO)=C(SCCO)C(=O)c2ccccc21 read fitted potency 1.901 µM (activator, partial curve, poor fit). CC(C)NC(=O)COc1cccc(-c2nc(Nc3ccc4[nH]ncc4c3)c3ccccc3n2)c1 gave fitted potency 21.33 µM (activator, partial curve). Result for C[C@H]1[C@H](C)CC[C@]2(C(=O)O)CC[C@]3(C)C(=CC[C@@H]4[C@@]5(C)C[C@@H](O)[C@H](O)[C@@](C)(CO)[C@@H]5CC[C@]43C)[C@H]12 was fitted potency 37.93 µM (activator, single point). With COC(=O)CCSC/C=C(\C)CCn1cc(CCc2ccc(-c3ccccc3)cc2)nn1 the assay gave fitted potency 43.23 µM (activator, single point).

Nc1ccccc1NC(=O)c1ccc(CNC(=O)OCc2cccnc2)cc1 read fitted potency 15.1 µM (activator, single point). OC1CCC(Nc2ncc3nc(Nc4c(F)cc(F)cc4F)n([C@H]4CCOC4)c3n2)CC1 (some centres unmarked) gave fitted potency 10.69 µM (activator, partial curve, poor fit). Result for NCC(=O)Nc1ccc(-n2nc(C(F)(F)F)cc2-c2ccc3c(ccc4ccccc43)c2)cc1 was fitted potency 23.93 µM (activator, single point). With CC[C@H](CO)Nc1nc(NCc2ccccc2)c2ncn(C(C)C)c2n1 the assay gave fitted potency 1.534 µM (activator, single point). For C=C(C(=O)OC)C1CCC2(C)C(O[C@@H]3O[C@H](CO)[C@@H](O)[C@H](O)[C@H]3O)CC(=O)C(C)C2C1O (some centres unmarked) the result was fitted potency 2.617 µM (activator, single point).

The last 2 entries again:

| Compound | fitted potency (µM) | curve |
|---|---|---|
| `CC[C@H](CO)Nc1nc(NCc2ccccc2)c2ncn(C(C)C)c2n1` | 1.534 | activator, single point |
| `C=C(C(=O)OC)C1CCC2(C)C(O[C@@H]3O[C@H](CO)[C@@H](O)[C@H](O)[C@H]3O)CC(=O)C(C)C2C1O` (some centres unmarked) | 2.617 | activator, single point |